Among the data in CN117820486A are binding values, retold here.

No constants are given. Whether binding was seen depends on the method and setting. Some results given as binding are weak or reduced against the parent protein; the word gives no strength.

One assay concerns the target 人源HLA-G1 (human) (UniProt P17693). Nature of the assay: flow cytometry on COS7-HLAG1 cells. A general note: Flow cytometry measures light scatter and fluorescence of single cells or particles in a stream.
For another assay, the target named is 人源HLA-G5蛋白 (human) (UniProt P17693). The assay can be described thus: ELISA on plate-coated human HLA-G5 protein. For orientation: In an ELISA, binding on a coated surface is turned into a signal by an enzyme label.

B1: 嵌合抗HLA-G抗体27G8 (antibody, V domains shown)
VH: EVQLQQSGPELVKPGASVKMSCKTSRSSFTEYTMQWVKQRHGKSLEWIGGIIPNNGAPTYNQKFKGKATLTVDKSSSMAFMELRSLTSEDSAVYFCARGGREEFGPYYFDFWGQGTTLTVSS
VL: DVVLTQIPLSLPVSLGDRASISCRSSQRLVHSNGYTHLHWYLQKPGQSPKLLIYKVSNRFSGVPDRFSGSGSGTDFTLKISRVEAEDLGVYFCSQSTFVPWTFGGGTKLEFK
Consider B1, for which the binding entry with 人源HLA-G1 (human) and with 人源HLA-G5蛋白 (human) was “binds” throughout.
